Experimental data as given in the supplement of paper PMC12823440, “Inhibitors supercharge kinase turnover through native proteolytic circuits” (Nature, 2025).
Where a name gives a salt, the structure may show the parent alone. The list shows a part of the results. Hit calls seldom repeat between salt and free forms of one compound.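 Kinases, fused to nanoluciferase, were expressed in K562 cells; luminescence was measured every 4 h from 2 to 18 h as percent of control (DMSO = 100%, positive control = 0%). A time point is decreased if signal falls significantly (2 sigma). Hits were called by the authors by a rule that is not shown; the count of time points alone does not decide it.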

Sequences of proteins named here, by UniProt entry; tags and fusion partners are left off. A change or cut given only in a name is not applied to a line headed by its entry.
UniProt Q05397, whole entry, looked up: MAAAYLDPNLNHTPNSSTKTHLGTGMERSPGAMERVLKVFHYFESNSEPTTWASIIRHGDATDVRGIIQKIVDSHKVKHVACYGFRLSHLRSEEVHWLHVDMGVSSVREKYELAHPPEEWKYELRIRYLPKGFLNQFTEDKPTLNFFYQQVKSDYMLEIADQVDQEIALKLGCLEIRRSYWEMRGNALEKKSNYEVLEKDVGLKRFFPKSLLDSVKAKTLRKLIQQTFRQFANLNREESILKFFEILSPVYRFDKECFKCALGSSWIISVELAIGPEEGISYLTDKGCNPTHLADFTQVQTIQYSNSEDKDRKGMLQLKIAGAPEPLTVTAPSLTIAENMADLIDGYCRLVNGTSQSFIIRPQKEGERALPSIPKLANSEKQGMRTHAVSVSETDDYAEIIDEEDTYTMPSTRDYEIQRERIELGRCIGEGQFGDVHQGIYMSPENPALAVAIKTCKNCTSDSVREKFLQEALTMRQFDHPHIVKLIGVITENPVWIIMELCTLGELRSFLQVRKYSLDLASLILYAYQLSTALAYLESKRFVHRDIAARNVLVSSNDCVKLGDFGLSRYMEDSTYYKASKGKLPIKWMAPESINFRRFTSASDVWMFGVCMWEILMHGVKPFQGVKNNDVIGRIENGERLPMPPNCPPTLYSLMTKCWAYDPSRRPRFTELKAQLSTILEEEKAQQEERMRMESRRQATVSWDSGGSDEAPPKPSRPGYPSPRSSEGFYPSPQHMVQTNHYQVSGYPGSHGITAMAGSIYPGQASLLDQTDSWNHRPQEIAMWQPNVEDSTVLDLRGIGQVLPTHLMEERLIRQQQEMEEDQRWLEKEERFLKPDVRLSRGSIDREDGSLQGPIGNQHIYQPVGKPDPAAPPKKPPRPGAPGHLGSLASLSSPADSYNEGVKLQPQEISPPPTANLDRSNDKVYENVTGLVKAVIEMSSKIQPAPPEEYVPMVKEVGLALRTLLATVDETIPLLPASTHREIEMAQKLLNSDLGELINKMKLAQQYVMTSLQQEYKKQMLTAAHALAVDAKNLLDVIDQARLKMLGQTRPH
UniProt Q14289, whole entry, looked up: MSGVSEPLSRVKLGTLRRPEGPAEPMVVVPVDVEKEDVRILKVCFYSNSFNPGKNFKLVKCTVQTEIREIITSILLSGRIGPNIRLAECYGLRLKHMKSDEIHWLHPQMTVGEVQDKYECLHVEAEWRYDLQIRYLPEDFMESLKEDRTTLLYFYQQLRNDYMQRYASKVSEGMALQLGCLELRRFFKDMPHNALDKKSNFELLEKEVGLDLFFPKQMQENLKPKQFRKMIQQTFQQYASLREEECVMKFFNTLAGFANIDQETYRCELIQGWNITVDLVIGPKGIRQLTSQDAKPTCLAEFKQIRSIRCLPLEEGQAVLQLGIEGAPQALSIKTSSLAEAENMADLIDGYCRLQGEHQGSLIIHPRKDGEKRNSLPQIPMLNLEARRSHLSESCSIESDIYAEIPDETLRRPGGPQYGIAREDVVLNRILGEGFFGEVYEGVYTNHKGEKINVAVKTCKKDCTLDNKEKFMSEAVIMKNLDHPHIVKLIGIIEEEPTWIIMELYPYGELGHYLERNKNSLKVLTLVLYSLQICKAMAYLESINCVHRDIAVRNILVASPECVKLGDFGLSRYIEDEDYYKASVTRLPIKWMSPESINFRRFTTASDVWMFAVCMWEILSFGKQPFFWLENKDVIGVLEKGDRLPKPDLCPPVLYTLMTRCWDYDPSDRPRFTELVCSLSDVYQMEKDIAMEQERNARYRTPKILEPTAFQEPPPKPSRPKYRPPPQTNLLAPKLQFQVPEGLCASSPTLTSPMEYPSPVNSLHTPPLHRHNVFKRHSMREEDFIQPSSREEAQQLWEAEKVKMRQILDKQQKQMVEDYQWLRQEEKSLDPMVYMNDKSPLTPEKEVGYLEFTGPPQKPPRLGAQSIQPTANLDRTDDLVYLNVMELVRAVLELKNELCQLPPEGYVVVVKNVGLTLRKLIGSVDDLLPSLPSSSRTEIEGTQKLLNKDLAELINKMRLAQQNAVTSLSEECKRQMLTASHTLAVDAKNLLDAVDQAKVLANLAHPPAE
UniProt P07949, whole entry, looked up: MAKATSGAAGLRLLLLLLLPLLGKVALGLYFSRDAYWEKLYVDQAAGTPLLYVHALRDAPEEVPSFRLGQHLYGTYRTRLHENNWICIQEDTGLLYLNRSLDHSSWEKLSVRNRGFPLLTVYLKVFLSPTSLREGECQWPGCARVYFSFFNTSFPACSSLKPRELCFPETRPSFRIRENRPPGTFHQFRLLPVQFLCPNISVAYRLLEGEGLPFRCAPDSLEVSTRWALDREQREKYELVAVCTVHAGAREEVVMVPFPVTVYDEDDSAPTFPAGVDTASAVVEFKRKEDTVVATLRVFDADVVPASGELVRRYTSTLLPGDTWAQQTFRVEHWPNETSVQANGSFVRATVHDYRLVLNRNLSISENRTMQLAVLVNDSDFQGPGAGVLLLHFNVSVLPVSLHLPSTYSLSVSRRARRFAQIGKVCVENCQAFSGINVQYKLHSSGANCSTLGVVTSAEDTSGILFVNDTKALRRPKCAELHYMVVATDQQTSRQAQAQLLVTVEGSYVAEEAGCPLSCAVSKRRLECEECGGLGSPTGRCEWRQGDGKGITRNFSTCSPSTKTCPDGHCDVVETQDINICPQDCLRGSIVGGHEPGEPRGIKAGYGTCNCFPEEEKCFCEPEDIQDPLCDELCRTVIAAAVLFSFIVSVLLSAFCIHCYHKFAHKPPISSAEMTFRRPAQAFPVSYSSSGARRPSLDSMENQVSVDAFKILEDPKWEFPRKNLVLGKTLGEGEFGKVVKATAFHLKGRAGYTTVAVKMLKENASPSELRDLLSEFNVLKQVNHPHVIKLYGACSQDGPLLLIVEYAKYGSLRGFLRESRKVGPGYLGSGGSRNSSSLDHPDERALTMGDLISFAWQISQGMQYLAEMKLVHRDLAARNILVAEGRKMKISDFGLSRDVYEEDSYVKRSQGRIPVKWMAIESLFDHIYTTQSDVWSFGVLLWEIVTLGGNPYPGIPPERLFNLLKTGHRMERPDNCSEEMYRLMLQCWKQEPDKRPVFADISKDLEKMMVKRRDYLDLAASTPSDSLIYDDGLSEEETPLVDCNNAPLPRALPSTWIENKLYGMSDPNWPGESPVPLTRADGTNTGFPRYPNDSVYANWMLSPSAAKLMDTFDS
UniProt P07949, whole entry M918T, looked up: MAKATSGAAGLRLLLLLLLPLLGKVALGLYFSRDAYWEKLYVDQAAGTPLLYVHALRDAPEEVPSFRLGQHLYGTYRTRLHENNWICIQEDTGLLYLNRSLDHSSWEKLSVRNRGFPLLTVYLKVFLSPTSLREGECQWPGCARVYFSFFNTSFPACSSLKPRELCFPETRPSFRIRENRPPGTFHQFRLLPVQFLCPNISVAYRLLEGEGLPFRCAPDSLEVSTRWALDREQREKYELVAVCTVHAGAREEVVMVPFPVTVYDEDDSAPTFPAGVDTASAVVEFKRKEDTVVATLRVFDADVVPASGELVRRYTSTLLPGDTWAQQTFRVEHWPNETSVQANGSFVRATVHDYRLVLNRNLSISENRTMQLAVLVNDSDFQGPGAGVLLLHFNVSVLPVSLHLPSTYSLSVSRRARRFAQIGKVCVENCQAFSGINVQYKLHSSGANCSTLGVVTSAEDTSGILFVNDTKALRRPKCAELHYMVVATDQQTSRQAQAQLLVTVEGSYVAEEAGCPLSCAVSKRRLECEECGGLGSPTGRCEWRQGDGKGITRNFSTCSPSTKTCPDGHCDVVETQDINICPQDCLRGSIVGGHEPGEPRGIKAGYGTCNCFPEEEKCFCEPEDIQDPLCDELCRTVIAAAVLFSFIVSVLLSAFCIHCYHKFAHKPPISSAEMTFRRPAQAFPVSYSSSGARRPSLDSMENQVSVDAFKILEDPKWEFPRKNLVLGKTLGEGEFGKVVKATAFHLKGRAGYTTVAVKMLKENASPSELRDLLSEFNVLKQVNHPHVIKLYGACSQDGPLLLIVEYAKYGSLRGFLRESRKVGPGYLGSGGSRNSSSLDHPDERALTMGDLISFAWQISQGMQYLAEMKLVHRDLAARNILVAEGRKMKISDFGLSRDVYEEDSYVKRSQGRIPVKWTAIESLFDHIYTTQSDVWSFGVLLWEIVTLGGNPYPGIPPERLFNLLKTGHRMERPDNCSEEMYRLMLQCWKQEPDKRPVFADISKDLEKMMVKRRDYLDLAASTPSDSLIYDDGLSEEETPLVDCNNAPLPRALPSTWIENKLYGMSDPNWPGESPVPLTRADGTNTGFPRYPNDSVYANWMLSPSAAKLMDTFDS
UniProt Q9BRS2: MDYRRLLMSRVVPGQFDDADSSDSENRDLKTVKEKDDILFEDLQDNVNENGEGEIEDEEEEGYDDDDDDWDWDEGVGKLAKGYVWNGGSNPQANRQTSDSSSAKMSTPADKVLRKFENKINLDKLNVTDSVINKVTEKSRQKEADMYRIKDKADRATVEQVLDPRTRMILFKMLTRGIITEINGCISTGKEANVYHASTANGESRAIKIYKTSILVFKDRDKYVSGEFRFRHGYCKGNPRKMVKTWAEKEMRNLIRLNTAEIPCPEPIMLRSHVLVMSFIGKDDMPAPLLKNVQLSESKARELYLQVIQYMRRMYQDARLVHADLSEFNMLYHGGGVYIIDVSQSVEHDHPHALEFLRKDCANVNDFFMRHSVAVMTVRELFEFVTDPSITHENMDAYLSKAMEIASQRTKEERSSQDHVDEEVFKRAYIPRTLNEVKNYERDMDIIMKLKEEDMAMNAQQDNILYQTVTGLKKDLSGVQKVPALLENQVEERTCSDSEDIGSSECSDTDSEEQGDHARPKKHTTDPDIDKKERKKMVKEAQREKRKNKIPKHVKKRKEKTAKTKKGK
UniProt Q13546: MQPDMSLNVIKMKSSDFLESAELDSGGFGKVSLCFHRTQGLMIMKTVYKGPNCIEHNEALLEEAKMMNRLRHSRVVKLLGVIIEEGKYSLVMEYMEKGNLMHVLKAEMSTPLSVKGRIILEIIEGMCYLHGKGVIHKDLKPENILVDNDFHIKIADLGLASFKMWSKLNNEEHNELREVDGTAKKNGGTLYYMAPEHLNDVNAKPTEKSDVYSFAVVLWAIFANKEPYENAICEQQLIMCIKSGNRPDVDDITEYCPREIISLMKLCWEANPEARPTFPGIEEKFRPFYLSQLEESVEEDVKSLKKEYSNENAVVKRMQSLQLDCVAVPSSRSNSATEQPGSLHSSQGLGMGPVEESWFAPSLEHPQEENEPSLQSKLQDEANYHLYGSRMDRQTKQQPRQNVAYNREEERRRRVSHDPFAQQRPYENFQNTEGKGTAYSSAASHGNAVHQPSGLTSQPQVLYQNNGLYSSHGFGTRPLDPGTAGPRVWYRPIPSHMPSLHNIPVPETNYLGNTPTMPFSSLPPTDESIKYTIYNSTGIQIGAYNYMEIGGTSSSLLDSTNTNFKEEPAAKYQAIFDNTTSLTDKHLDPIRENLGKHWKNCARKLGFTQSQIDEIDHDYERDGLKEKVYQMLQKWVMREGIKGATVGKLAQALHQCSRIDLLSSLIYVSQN

Experiments:
Assay in all cases: number of time points (of 5) at which kinase-Nluc abundance scored as decreased, DMSO-normalised (count); higher = more persistent destabilization
Conditions in all cases: K562; 2-18 h
[1] = biological target: PRKCA (UniProt P17252)
[2] = biological target: PTK2 (UniProt Q05397)
[3] = biological target: PTK2B (UniProt Q14289)
[4] = biological target: RAF1 (UniProt P04049)
[5] = biological target: RAF1_S257L (clone: RAF1_mut) (UniProt P04049)
[6] = biological target: RET (UniProt P07949)
[7] = biological target: RET_M918T (clone: RET_mut) (UniProt P07949)
[8] = biological target: RIOK1 (UniProt Q9BRS2)
[9] = biological target: RIPK1 (UniProt Q13546)
[10] = biological target: RIPK2 (UniProt O43353)

Row | Compound | number of time points [1] | number of time points [2] | number of time points [3] | number of time points [4] | number of time points [5] | number of time points [6] | number of time points [7] | number of time points [8] | number of time points [9] | number of time points [10]
1 | COc1c(O)cc(O)c2c(=O)cc(-c3ccccc3)oc12 [Wogonin] (10 µM) | 0 | 0 | 0 | 0 | 0 | 0 | 0 | 0 | 0 | 0
2 | Nc1ccc(-c2nc3ccc(-c4nc5ccc(N)cc5[nH]4)cc3[nH]2)cc1 (10 µM) | 0 | 0 | 0 | 0 | 0 | 0 | 0 | 0 | 0 | 0
3 | NC(=O)c1sc2c([N+](=O)[O-])cc(C(F)(F)F)cc2[n+]1[O-] [Cyclapolin 9] (10 µM) | 0 | 0 | 0 | 0 | 0 | 0 | 0 | 0 | 0 | 0
4 | N=C(NC(=N)N1CCCC1)Nc1ccc(OC(F)(F)F)cc1 (10 µM) | 0 | 0 | 0 | 0 | 0 | 0 | 0 | 0 | 0 | 0
5 | COc1c(Nc2ncc(Cl)c(N[C@H]3[C@@H](C(N)=O)[C@@H]4C=C[C@H]3C4)n2)ccc2c1CC[C@@H](N1CCOCC1)CC2 (10 µM) | 0 | 0 | 0 | 0 | 0 | 0 | 0 | 0 | 0 | 0
6 | NC(=O)c1c(NC(=O)C2CC2)sc2c1CCCC2 (10 µM) | 0 | 0 | 0 | 0 | 0 | 0 | 0 | 0 | 0 | 0
7 | CC1=C(C#N)C(c2ccc3[nH]nc(C)c3c2)C(C#N)=C(C)N1 (10 µM) | 0 | 0 | 0 | 0 | 0 | 0 | 0 | 0 | 0 | 0
8 | CC(C)c1cc2c(c(O)c1O)[C@@]13CCCC(C)(C)[C@@H]1C[C@@H]2OC3=O [Carnosol] (2.5 µM) | 0 | 0 | 0 | 0 | 0 | 0 | 0 | 0 | 0 | 0
9 | CC(C)n1cnc2c(Nc3cccc(Cl)c3)nc(N[C@H]3CCCC[C@@H]3N)nc21 (2.5 µM) | 0 | 0 | 0 | 0 | 0 | 0 | 0 | 0 | 0 | 0
10 | Cc1ccc(Nc2cc(N[C@@H]3CCCC[C@@H]3N)nnc2C(N)=O)nc1C (2 µM) | 0 | 0 | 0 | 0 | 0 | 0 | 0 | 0 | 0 | 0
11 | O=C(Nc1ccnc(NC(=O)C2CC2)c1)c1c(Cl)cccc1Cl (10 µM) | 0 | 0 | 0 | 0 | 4 | 0 | 0 | 0 | 0 | 0
12 | N#Cc1cnc(Nc2cc(NC[C@H]3CNCCO3)c(C(F)(F)F)cn2)cn1 (10 µM) | 0 | 1 | 0 | 2 | 1 | 2 | 2 | 0 | 0 | 0
13 | O=c1cc(-c2ccc(O[C@@H]3O[C@H](CO)[C@@H](O)[C@H](O)[C@H]3O)cc2)oc2cc(O)c([C@@H]3O[C@H](CO)[C@@H](O)[C@H](O)[C@H]3O[C@@H]3OC[C@H](O)[C@H](O)[C@H]3O)c(O)c12 [Vaccarin] (10 µM) | 0 | 0 | 0 | 0 | 0 | 0 | 0 | 0 | 0 | 0
14 | O=C(Nc1ccc(Cl)cc1)C1CN(C(=O)c2cccc(-c3ccco3)c2)CC(F)(F)C1 (stereo not given) (2.5 µM) | 0 | 0 | 0 | 0 | 0 | 0 | 0 | 0 | 0 | 0
15 | CCOC(=O)c1c(N2CCc3ccc(OC)cc3C2)oc(C=C2C=Nc3ncccc32)c1O (10 µM) | 0 | 0 | 0 | 0 | 0 | 0 | 0 | 0 | 0 | 0
16 | Cc1ccc2c(NS(=O)(=O)c3ccccc3Cl)cccc2c1Oc1ncccc1-c1ccnc(N[C@H]2CCCNC2)n1 (2.5 µM) | 0 | 0 | 0 | 0 | 0 | 0 | 0 | 0 | 0 | 0
17 | COc1cccc(-c2cc(=O)c3ccccc3o2)c1N (10 µM) | 0 | 0 | 0 | 0 | 0 | 0 | 0 | 0 | 0 | 0
18 | CN1CCN(c2ccc(-c3ccncc3-c3cc(F)c(O)c(F)c3)cc2)CC1 (10 µM) | 0 | 0 | 0 | 0 | 0 | 0 | 0 | 0 | 0 | 0
19 | S=C(NCc1ccc2c(c1)OCO2)N1CCN(c2ncnc3c2oc2ccccc23)CC1 [Amuvatinib] (2.5 µM) | 0 | 0 | 0 | 0 | 0 | 0 | 0 | 0 | 0 | 0

Row | Compound | number of time points [1] | number of time points [2] | number of time points [3] | number of time points [4] | number of time points [5] | number of time points [6] | number of time points [7] | number of time points [8] | number of time points [9] | number of time points [10]
20 | CC(C)=CCC[C@](C)(O[C@@H]1O[C@H](CO[C@@H]2O[C@H](CO)[C@@H](O)[C@H](O)[C@H]2O)[C@@H](O)[C@H](O)[C@H]1O)[C@H]1CC[C@]2(C)[C@@H]1[C@H](O)C[C@@H]1[C@@]3(C)CC[C@H](O[C@@H]4O[C@H](CO)[C@@H](O)[C@H](O)[C@H]4O[C@@H]4O[C@H](CO)[C@@H](O)[C@H](O)[C@H]4O)C(C)(C)[C@@H]3CC[C@]12C [Ginsenoside Rb1] (10 µM) | 0 | 0 | 0 | 0 | 0 | 0 | 0 | 0 | 0 | 0
21 | CCCS(=O)(=O)N[C@H]1C[C@@H](N(C)c2ncnc3[nH]ccc23)C1 [Abrocitinib] (10 µM) | 0 | 0 | 0 | 0 | 0 | 0 | 0 | 0 | 0 | 0
22 | Cc1nc(Nc2cnn(C3CCNCC3)c2)nc2c1N(C)C(=O)c1cc3ccccc3cc1N2C (2.5 µM) | 0 | 0 | 0 | 0 | 0 | 0 | 0 | 0 | 0 | 0
23 | COc1cc2nc(NC3CC3)nc(NC3CCN(C(C)C)CC3)c2cc1OC (10 µM) | 0 | 0 | 0 | 1 | 0 | 0 | 0 | 0 | 1 | 0
24 | Cn1cc(-c2nc(N[C@@H]3CCCC[C@@H]3N)c(F)c3c2C(=O)NC3)cn1 [TAK-659 (hydrochloride)] (2 µM) | 0 | 0 | 0 | 0 | 0 | 0 | 0 | 0 | 0 | 0
25 | C=CC(=O)Nc1cc(Nc2nccc(-c3cn(C)c4ccccc34)n2)c(OCC(F)(F)F)nc1N(C)CCNC [AST5902  (trimesylate)] (2.5 µM) | 0 | 0 | 2 | 0 | 1 | 0 | 0 | 0 | 1 | 0
26 | COCCOc1cnc2ccn([C@H](C)c3nnc4c(F)cc(-c5cnn(C)c5)cn34)c(=O)c2c1 (10 µM) | 0 | 0 | 0 | 0 | 0 | 0 | 0 | 0 | 0 | 0
27 | Cc1cnc(Cl)nc1-c1ccc(N(Cc2ccc(CNC(=O)C(F)F)cc2)C(=O)c2ccc(O)cc2O)cc1 (10 µM) | 0 | 0 | 0 | 0 | 0 | 0 | 0 | 0 | 0 | 0
28 | O=c1cc(N2CCOCC2)oc2c(-c3cccc4c3sc3ccccc34)cccc12 (10 µM) | 0 | 0 | 0 | 0 | 0 | 0 | 0 | 0 | 0 | 0
29 | O=C(NC[C@H](O)CO)c1ccncc1Nc1ccc(I)cc1F [Pimasertib] (10 µM) | 0 | 1 | 1 | 2 | 1 | 1 | 0 | 1 | 2 | 1
30 | COc1ccc2nc3ccc(OC)cc3c(SCCCN)c2c1 (10 µM) | 0 | 0 | 0 | 0 | 4 | 2 | 0 | 2 | 3 | 4
31 | Cc1ccc(C2CC(=O)NC(SCC(=O)Nc3nccs3)=C2C#N)cc1 (stereo not given) [Necrostatin-34] (10 µM) | 0 | 0 | 0 | 0 | 0 | 0 | 0 | 0 | 0 | 0
32 | CC(C)n1c(CO)nc2c(F)cc(-c3nc(Nc4ccc(CN5CCNCC5)cn4)ncc3F)cc21 (10 µM) | 0 | 3 | 0 | 3 | 4 | 0 | 4 | 2 | 3 | 3
33 | Cc1cc(N2CCOCC2)ccc1Nc1nc(NC2CCCCC2)c2[nH]cnc2n1 (10 µM) | 0 | 0 | 0 | 0 | 0 | 0 | 0 | 0 | 0 | 0
34 | CCc1c(C(=O)NNC(=O)[C@H](O)c2cc(F)cc(F)c2)ccc(O)c1C (10 µM) | 0 | 0 | 0 | 0 | 0 | 0 | 0 | 0 | 0 | 0
35 | NCCNS(=O)(=O)c1ccc(Cl)c2ccncc12 [CKI-7 (free base)] (10 µM) | 0 | 0 | 0 | 0 | 0 | 0 | 0 | 0 | 0 | 0
36 | O=C1NC(=O)C(Cc2c[nH]c3c(Cl)cccc23)N1 (stereo not given) [Necroptosis-IN-1] (10 µM) | 0 | 0 | 0 | 0 | 0 | 0 | 0 | 0 | 0 | 0
37 | Cn1c(N2CCO[C@@H](c3ccc(F)cc3)C2)nc(-c2ccncn2)cc1=O (10 µM) | 0 | 0 | 0 | 0 | 0 | 0 | 0 | 0 | 0 | 0

Just number of time points [8] (two entries from above):
Row	Compound	number of time points [8]
22	Cc1nc(Nc2cnn(C3CCNCC3)c2)nc2c1N(C)C(=O)c1cc3ccccc3cc1N2C (2.5 µM)	0
37	Cn1c(N2CCO[C@@H](c3ccc(F)cc3)C2)nc(-c2ccncn2)cc1=O (10 µM)	0
